From article PMC5058508
These are yes or no findings as the source states them, for the method shown. For some assays here: Binding seen in cells or lysates may run through a third protein. Some entries that bind do so weakly or less than the wild type. Tags and fused reporters may be left off the sequences shown.

B1: C-terminal FLAG-Tagged mouse CTRP3 (C1q TNF Related Protein 3) (ligand, UniProt Q9ES30 23-246)
chain: QDEYMESPQAGGLPPDCSKCCHGDYGFRGYQGPPGPPGPPGIPGNHGNNGNNGATGHEGAKGEKGDKGDLGPRGERGQHGPKGEKGYPGVPPELQIAFMASLATHFSNQNSGIIFSSVETNIGNFFDVMTGRFGAPVSGVYFFTFSMMKHEDVEEVYVYLMHNGNTVFSMYSYETKGKSDTSSNHAVLKLAKGDEVWLRMGNGALHGDHQRFSTFAGFLLFETK
B2: Lysosomal-associated membrane protein 1 (LAMP-1) (receptor, UniProt P14562 22-407)
chain: APALFEVKDNNGTACIMASFSASFLTTYDAGHVSKVSNMTLPASAEVLKNSSSCGEKNASEPTLAITFGEGYLLKLTFTKNTTRYSVQHMYFTYNLSDTQFFPNASSKGPDTVDSTTDIKADINKTYRCVSDIRVYMKNVTIVLWDATIQAYLPSSNFSKEETRCPQDQPSPTTGPPSPSPPLVPTNPSVSKYNVTGDNGTCLLASMALQLNITYMKKDNTTVTRAFNINPSDKYSGTCGAQLVTLKVGNKSRVLELQFGMNATSSLFFLQGVQLNMTLPDAIEPTFSTSNYSLKALQASVGNSYKCNSEEHIFVSKALALNVFSVQVQAFRVESDRFGSVEECVQDGNNMLIPIAVGGALAGLVLIVLIAYLIGRKRSHAGYQTI

Experiments:
[1] = biological target: T1, Lysosomal-associated membrane protein 1 (LAMP-1) (rat (endogenous in H4IIE)) (UniProt P14562); assay: flow cytometry on cells; H4IIE cells treated overnight ± CTRP3-FLAG (2.5 μg/well) ± polyclonal LAMP1 antibody (10 μg/well); fixed in 4% formaldehyde; rabbit anti-FLAG and fluorochrome-conjugated secondary antibody; MFI and percent positive cells; only the binder purified
T1 sequence: B2 chain

[2] = biological target: T1, Lysosomal-associated membrane protein 1 (LAMP-1) (rat (endogenous in H4IIE)); assay: TriCEPS-based ligand-receptor capture (LRC-TriCEPS) with LC-MS/MS; TriCEPS-coupled CTRP3-FLAG or TriCEPS-coupled insulin (control ligand) added to mildly oxidised (1.5 mM NaIO4) H4IIE rat hepatoma cells, 90 min at 4°C, PBS pH 6.5; captured glycopeptides by LC-MS/MS; CTRP3 against insulin samples; only the binder purified
[3] = biological target: T2, Lysosome membrane protein 2 (LIMP II) (rat (endogenous in H4IIE)) (UniProt P27615); assay: as above
T2 sequence: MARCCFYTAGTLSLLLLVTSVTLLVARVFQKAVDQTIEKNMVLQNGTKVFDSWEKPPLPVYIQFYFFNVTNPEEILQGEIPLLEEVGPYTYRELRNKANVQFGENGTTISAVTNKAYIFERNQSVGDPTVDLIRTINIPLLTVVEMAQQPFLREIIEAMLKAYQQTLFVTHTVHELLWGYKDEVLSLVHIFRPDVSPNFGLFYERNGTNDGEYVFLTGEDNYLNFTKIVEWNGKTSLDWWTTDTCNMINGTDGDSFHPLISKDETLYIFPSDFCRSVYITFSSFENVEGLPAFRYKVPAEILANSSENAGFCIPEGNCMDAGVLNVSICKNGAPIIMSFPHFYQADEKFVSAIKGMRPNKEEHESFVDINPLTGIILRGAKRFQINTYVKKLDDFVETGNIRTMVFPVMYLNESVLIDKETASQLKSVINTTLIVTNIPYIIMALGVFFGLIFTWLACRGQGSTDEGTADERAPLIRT

FLAG peptide = biological target: T3, FLAG peptide; assay: co-IP; H4IIE cells treated overnight with vehicle, FLAG peptide or recombinant CTRP3-FLAG; non-denaturing lysis buffer (20 mM Tris HCl pH 8, 137 mM NaCl, 10% glycerol, 1% Nonidet P-40, 2 mM EDTA); anti-FLAG affinity gel; immunoblot for LAMP1; only the target purified
T3 sequence (peptide): DYKDDDDK

[4] = biological target: T4, C-terminal FLAG-Tagged mouse CTRP3 (C1q TNF Related Protein 3) (mouse) (UniProt Q9ES30); assay: as above
T4 sequence: B1 chain

| Binder | binding [1] | binding [2] | binding [3] | binding (FLAG peptide) | binding [4] |
| --- | --- | --- | --- | --- | --- |
| B1 | binds | binds | binds | – | – |
| B2 | – | – | – | no binding | binds |
